Measurements: patent US20030073721A1 (THE REGENTS OF THE UNIVERSITY OF CALIFORNIA, a California …, priority 2001, published 2003)

What was measured:
[1] = solid-phase peptide synthesis
[2] = peptide synthesis; conditions: coupling step

For Ac-Phe-Ach-Leu-Ach-Ile N-methylamide, the step yield ([1]; late stage modification step, over 2 steps from acetyl derivative) was 42% over 2 steps.
Work on Ac-Phe-Ach-Leu-Ach-Ile acid yielded a step yield ([1]; late stage modification step) of 97%.
For Ac-Phe-Ach-Leu-Ach-Ile tert-butyl ester, the step yield ([1]; late stage modification step) was 85%.
With Ach-Leu-Ach-Ile tert-butyl ester the step yield ([1]; late stage modification step) was 77%.
Substance Alloc-Ach-Leu-Ach-Ile, tert-butyl ester has a step yield [2] of 42%.
With “Fmoc-Phe-Ach-Leu-Ach-Ile, tert-butyl ester” the step yield ([1]; coupling step) was 91%.
In the case of Phe-Ach-Phe-Ach-Ile, the isolated yield ([1]; whole synthesis, overall, scale of the general procedure 0.1 g resin, 0.91 mmol/g) is reported as 45% overall and the isolated mass ([1]; whole synthesis, scale 0.06 g resin) is reported as 15 mg.
